Laboratory results as given in PubChem BioAssay AID2685 (National Center for Advancing Translational Sciences (NCATS), 2010).
Some of the results follow. The main result of the screen is listed elsewhere. These columns were measured beside it and carry no call. The list favours compounds with an active or inconclusive main result. Words in brackets tell the shape of the fitted curve; partial curves, single points and poor fits give uncertain potencies.

Experiment: qHTS Assay for Lipid Storage Modulators in Drosophila S3 Cells;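 on cell number change: cells counted by Cell Tracker Red CMTPX staining in the red channel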
Conditions: BODIPY lipid droplet fluorescence, 18-24 h; for cell number change: measured here: cell count max response, cells fed with added oleic acid
Outline: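 Drosophila S3 cells loaded with oleic acid (400 uM, as added) and compounds at several concentrations; lipid droplets imaged by 488-nm laser-scanning cytometry, 500–530 nm intensity and object ratio to cell channel. Percent activity normalized to 20 uM Triacsin C.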

[1] = measured here: cell number channel AC50, cells fed with added oleic acid
[2] = measured here: lipid fluorescence (Fed channel) AC50, cells fed with added oleic acid

Compound | AC50 [1] | AC50 [2] | cell number change
Cc1cc(NC(=O)CSc2nc(CC(C)(C)C)nc3c2c(=O)n(C)c(=O)n3C)no1 | 0.259 µM [rising, partial curve] | 0.259 µM [rising, partial curve] | –
Cc1ccc(CC(=O)Nc2ccc(S(=O)(=O)N3CCOCC3)cc2)cc1C | 29.1 µM [falling, partial curve, poor fit] | – | -49.4%
O=C(NNC(=S)Nc1ccccc1Cl)c1ccccc1 | – | 29.1 µM [rising, single point] | -11.9%
COc1cccc(NC(=O)Cn2nnc(C(=O)NCCc3ccccc3)c2N)c1 | – | 0.00461 µM [falling, full curve, poor fit] | –
COc1cccc(COC(=O)C2CCN(S(=O)(=O)c3ccc(Cl)cc3)CC2)c1OC | – | 6.51 µM [falling, single point] | 24.3%
Cc1sc2nc(COC(=O)c3ccc(N4CCCC(C)C4)c([N+](=O)[O-])c3)[nH]c(=O)c2c1C (configuration not stated) | 2.91 µM [rising, full curve] | – | 33%
O=C(O)c1ccc(C2SCC(=O)N2Cc2ccccc2)cc1 (configuration not stated) | 29.1 µM [falling, single point] | 0.731 µM [falling, single point] | -78%
CCOC(=O)C1C(=O)N(C(=O)c2ccc(OC)cc2)CC1c1ccccc1 (configuration not stated) | – | – | 8.43%
Cc1ccc(Sc2ncccc2COC(=O)Nc2ccccc2)cc1 | – | 13 µM [falling, partial curve, poor fit] | -37.8%
COc1cc(S(=O)(=O)Nc2ccc(C)cc2)ccc1N=Cc1c(C)[nH]n(-c2ccc(C)cc2)c1=O | – | 0.146 µM [rising, full curve, poor fit] | -1.9%
COc1cc(NC(=O)COC(=O)CCc2cc(OC)c(OC)c(OC)c2)cc(OC)c1 | – | – | -3.69%
C=CCn1c(SCC(=O)NC2CCCCC2)nnc1-c1ccc(OC)cc1 | – | 7.31 µM [rising, partial curve] | 26.1%
Cn1cc(C(=O)Nc2ccc(C#N)cc2)c2ccccc2c1=O | – | 0.58 µM [rising, single point] | 2.78%
CCOc1ccc2oc(C(=O)NCc3nc4ccccc4[nH]3)c(C)c2c1 | – | 29.1 µM [falling, single point] | -12.4%
CC(=O)N1CCc2c(sc(NC(=O)CCS(=O)(=O)c3ccccc3)c2C#N)C1 | – | – | -0.99%
COc1ccc(C2c3ccc4ccccc4c3Oc3ncn(CCO)c(=N)c32)cc1 (configuration not stated) | – | 0.58 µM [falling, single point] | 9.01%
O=C(OCc1csc(-c2ccccc2)n1)c1ccccc1O | 20.6 µM [rising, single point] | 29.1 µM [rising, single point] | 47.2%
COc1cc(C(=O)Nc2ccc(N3CCCS3(=O)=O)cc2)c([N+](=O)[O-])cc1OC | – | 18.4 µM [falling, partial curve, poor fit] | -29.5%
CC1CCc2cc(F)cc3c(O)c(C(=O)NCCN(C)C)c(=O)n1c23 (configuration not stated) | – | 29.1 µM [rising, single point] | -19.1%

Compound | AC50 [1] | AC50 [2] | cell number change
COc1cc(NC(=O)C/C(C)=N/NC(=O)C(=O)NC2CCCCC2)c(OC)cc1Cl | 32.6 µM [rising, partial curve, poor fit] | 23.1 µM [rising, partial curve, poor fit] | 58.9%
Cc1cc(C)n(-c2cccc(C(=O)O)c2)n1 | – | 29.1 µM [rising, single point] | 19.5%
Cc1nnc(NC(=O)CN2C(=O)c3ccccc3S2(=O)=O)s1 | 0.731 µM [falling, full curve] | 29.1 µM [falling, single point] | -52.1%
COc1cc(/C=N\Nc2nc(-c3cccs3)c(NC(C)=O)s2)ccc1O | – | 29.1 µM [rising, single point] | 24.5%
CCOC(=O)Cn1c(=N)n(Cc2ccccc2)c2ccccc21 | – | 25.9 µM [rising, single point] | 22.5%
Cc1nc(CS(=O)(=O)c2ccccc2)cc(N2CCOCC2)n1 | – | 0.651 µM [falling, single point] | 14.1%
Cc1ccc(C(=O)c2c3ccccc3[n+]([O-])n2CCC(=O)O)cc1 | – | 11.6 µM [rising, partial curve] | 0.546%
O=C(COc1ccc(S(=O)(=O)N2CCCC2)cc1)Nc1ccc(F)cc1 | – | – | -9.21%
O=C1c2cc(S(=O)(=O)NCCCO)ccc2-c2ccc(S(=O)(=O)NCCCO)cc21 | – | 20.6 µM [falling, partial curve] | -19.5%
CC(=O)NC(Cc1cccc(F)c1)C(=O)NC1CCN(c2nnnn2-c2ccccc2)CC1 (configuration not stated) | – | 2.59 µM [rising, partial curve, poor fit] | 22.1%
CCCCOP(=O)(OCCCC)C1(NS(=O)(=O)c2ccccc2)C=CC(=O)c2ccccc21 (configuration not stated) | – | – | -21.7%
O=C(NCC(=O)N(c1cccnc1)C(C(=O)NC1CCCCC1)c1ccccc1F)c1ccco1 (configuration not stated) | – | 29.1 µM [rising, single point] | –
CC(C(=O)NC(=O)NC1CCCCC1)N1CCN(C(c2ccccc2)c2ccccc2)CC1 (configuration not stated) | – | 14.6 µM [rising, partial curve] | -16.9%
COc1ccc(C(=O)OCC(=O)NC2CC2)cc1OC | – | 1.64 µM [falling, partial curve] | 7.74%
CC(=O)c1nn(-c2cccc(Br)c2)cc1C(=O)c1ccc(Cl)cc1 | 0.184 µM [falling, full curve, poor fit] | 0.164 µM [falling, full curve, poor fit] | -35.8%
CCOC(=O)CSc1nnc(-c2cccnc2)n1Cc1ccccc1 | 0.517 µM [rising, single point] | – | –
Cn1c(-c2cccc([N+](=O)[O-])c2)cnc1NCc1ccc(C#N)cc1 | 0.411 µM [rising, partial curve] | 2.31 µM [rising, partial curve, poor fit] | 8.2%
CCC(C)(O)c1[nH]c2ccc(C#N)cc2c1C (configuration not stated) | – | 29.1 µM [rising, single point] | 13.6%

Single records, from the list above. Values in the order: AC50 [1] | AC50 [2] | cell number change
Cc1nc(CS(=O)(=O)c2ccccc2)cc(N2CCOCC2)n1 is listed as – | 0.651 µM [falling, single point] | 14.1%
Cn1c(-c2cccc([N+](=O)[O-])c2)cnc1NCc1ccc(C#N)cc1 is listed as 0.411 µM [rising, partial curve] | 2.31 µM [rising, partial curve, poor fit] | 8.2%
